We go through two molecules from publication PMC7367684, “Mechanical inhibition of isolated Vo from V/A-ATPase for proton conductance” (eLife, 2020).

No constants are given. Whether binding was seen depends on the method and setting. Binding can be weak; no strength is given.

The assay concerns the target c subunit of the Thermus thermophilus V/A-ATPase (c12 rotor ring) (Thermus thermophilus) (UniProt Q5SIT7). Nature of the assay: cryo-EM structure; isolated Vo (His3 tag on the c subunit) in nanodiscs (MSP1E3D1, DMPC by the methods), 20 mM Tris-HCl pH 8.0, 150 mM NaCl; CRYOARM200, K2 Summit; 3.9 Å; both purified.

B1: d subunit of the Thermus thermophilus V/A-ATPase (natural protein)
chain: MADDFAYLNARVRVRRGTLLKESFFQEALDLSFADFLRLLSETVYGGELAGQGLPDVDRAVLRTQAKLVGDLPRLVTGEAREAVRLLLLRNDLHNLQALLRAKATGRPFEEVLLLPGTLREEVWRQAYEAQDPAGMAQVLAVPGHPLARALRAVLRETQDLARVEALLAKRFFEDVAKAAKGLDQPALRDYLALEVDAENLRTAFKLQGSGLAPDAFFLKGGRFVDRVRFARLMEGDYAVLDELSGTPFSGLSGVRDLKALERGLRCVLLKEAKKGVQDPLGVGLVLAYVKEREWEAVRLRLLARRAYFGLPRAQVEEEVVCP
notes: d subunit (subunit C) of the V/A-ATPase of Thermus thermophilus, strain HB8
B1: the binding result was “binds”.

B2: a subunit of the Thermus thermophilus V/A-ATPase (protein, UniProt Q5SIT6 1-652)
chain: MIAPMEKLVLAGPKGRAKELLQSLQQAGVVHLETLRPEALSAYQLSPEERAELRRWEAVSAGAEHTLSLLGLEAEPARPFPEGLEAAEKALSPIQAHAEGLTRQKQELEEELALAQAYLEPLERLAALAHGLDKSPFLRVIPFLLTEKELPLVEEALRKALEDRYLLAHEAYAGGVAALVVVHRKEVDQAKAALSRAGVAELRLPGALGELPLSEAARRLKERAEAAPRELSEVRQHLAKLARESASTLQSLWTRAQDEVARLKALEELASGRFGFALLGYVPVKAKPKVEEALARHKESVVYAFEPVDEHHEADRIPVVLDNPPWAKPFELLVSFLNTPKYGTFDPTPVVPVFFPFWFGMIVGDIGYALLFYLVGRWLSGYVKRNEPLVIDLFALKLKPQVIGKLVHILNWMVFWTVVWGVIYGEFFGTFLEHLGVFGTPEHPGLIPILIHRIDTAKTANLLILLSVAFGVVLVFFGLALRAYLGLKHRHMAHFWEGVGYLGGLVGVLALAASYLGNLQAGWLQGLMYLGFGVFLLAVLMSRIWLMIPEIFTQAGHILSHIRIYAVGAAGGILAGLLTDVGFALAERLGLLGVLLGLLVAGVLHLLILLLTTLGHMLQPIRLLWVEFFTKFGFYEENGRPYRPFKSVREAQ
With B2, the binding entry is “binds”.
